Data taken from patent US20260167614A1, “IDENTIFICATION OF SMALL MOLECULES THAT RECRUIT AND ACTIVATE RNASE L” (UNIVERSITY OF FLORIDA RESEARCH FOUNDATION, INCORPORATED, priority 2022, published 2026).
Some entries share one result that the patent states for a list of compounds.

Target: T1, RNase L (Homo sapiens, UniProt Q05823)
T1 construct: made in house; host or cells: Rosetta DE3 E. coli
T1 sequence (Q05823 1-741): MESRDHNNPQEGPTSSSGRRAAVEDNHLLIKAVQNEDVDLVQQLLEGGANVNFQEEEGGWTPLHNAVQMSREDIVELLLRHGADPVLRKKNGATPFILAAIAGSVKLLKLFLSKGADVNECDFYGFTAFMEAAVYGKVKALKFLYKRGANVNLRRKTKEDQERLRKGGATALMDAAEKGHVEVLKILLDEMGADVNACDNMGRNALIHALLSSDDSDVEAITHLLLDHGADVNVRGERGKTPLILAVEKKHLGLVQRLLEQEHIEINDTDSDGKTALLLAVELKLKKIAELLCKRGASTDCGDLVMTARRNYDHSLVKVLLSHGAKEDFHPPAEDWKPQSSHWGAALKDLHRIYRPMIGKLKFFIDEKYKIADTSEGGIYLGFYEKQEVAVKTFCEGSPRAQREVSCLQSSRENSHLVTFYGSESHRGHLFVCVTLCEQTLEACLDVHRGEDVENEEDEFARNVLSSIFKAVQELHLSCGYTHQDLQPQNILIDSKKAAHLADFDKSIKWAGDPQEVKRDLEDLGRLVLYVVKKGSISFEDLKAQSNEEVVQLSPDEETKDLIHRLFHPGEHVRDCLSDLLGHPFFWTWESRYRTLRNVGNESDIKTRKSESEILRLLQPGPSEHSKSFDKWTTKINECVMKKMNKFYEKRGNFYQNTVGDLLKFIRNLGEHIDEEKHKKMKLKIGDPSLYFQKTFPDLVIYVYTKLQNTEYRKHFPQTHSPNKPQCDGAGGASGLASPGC
Assay: FRET-based in vitro RNA cleavage assay (RNase L activation)
Assay type: biochemical
Conditions: dose response, fluorescence normalized to 50 μM of 6
Excerpt: The four compounds with the highest confidence (enrichment scores>300 and copy number>25) were selected for further study. The compounds were re-synthesized without the encoding DNA tag and were studied for RNase L activation using a fluorescence-based in vitro assay, completed as previously described.^16 In brief, the assay uses an dually labeled RNA [5′ fluorescein (6-FAM) and 3′ black hole quencher (BHQ)] that harbors multiple preferred substates for RNase L (FIG. 2A).^16 In the presence of a binder that activates RNase L, the enzyme cleaves the RNA, resulting in an increased fluorescence signal. […] 2 and 3 are similar in structure, differing only by the first building block, phenylglycine in 2 and indoline in 3 (FIG. 2C).
FRET-Based In Vitro RNA Cleavage Assay. Samples were prepared as previously described.^3 Briefly, an RNA construct with multiple preferred RNase L cleavage sites^7 (5′ 6-FAM-[…]-3′ BHQ; 100 nM final concentration) was folded in 1× RNase L Assay Buffer (25 mM Tris-HCl, pH 7.4, and 100 mM NaCl) for 1 min at 95° C. followed by snap cooling on ice for 10 min. Following cooling, β-mercaptoethanol (7 mM), ATP (50 μM), and MgCl2 (1 mM) were added. Compound or DMSO (1%; vehicle) was added to the folded RNA, and the samples were incubated for 15 min. Recombinant GST-RNase L-His was then added to the solution (50 nM final concentration), affording a total volume of 33 μL. Technical triplicates (10 μL) were dispensed into 384-well low volume non-binding plate (Corning 4515), and the samples were incubated in the dark for 1 h. Fluorescence was measured using a Tecan infinite M1000 Pro plate reader using an excitation wavelength of 485 nm, emission wavelength of 520 nm, and gain of 100. Data are reported as “Relative RNA Cleavage”, normalizing fluorescence to the highest level of cleavage observed—upon addition of 50 μM of 6, which was set to 1.

CCCCCCCCc1ccsc1-c1cccc(-c2ccc(CN(C)[C@H](C(=O)NC)c3ccccc3)cc2)c1 [Compound 2, (S)—N-methyl-2-(methyl((3′-(3-octylthiophen-2-yl)-[1,1′-biphenyl]-4-yl)methyl)amino)-2-phenylacetamide]
Relative RNA Cleavage (cleavage of fluorescently labeled RNA, RNase L activation) (listed as compound 2): induce dose-dependent cleavage

CNC(=O)[C@H](c1ccccc1)N(C)Cc1ccc(-c2cccc(-c3sccc3N)c2)cc1 [Compound 4, (S)-2-(((3′-(3-aminothiophen-2-yl)-[1,1′-biphenyl]-4-yl)methyl)-(methyl)amino)-N-methyl-2-phenylacetamide]
Relative RNA Cleavage (cleavage of fluorescently labeled RNA, RNase L activation) (listed as compound 4): induce dose-dependent cleavage

CNC(=O)[C@H](c1ccccc1)N(C)Cc1ccc(-c2cccc(-c3sccc3NC(=O)CCOCCOCCOCCC(=O)OC(C)(C)C)c2)cc1 [Compound 5, tert-butyl (S)-3-(2-(2-(3-((2-(4′-((methyl(2-(methylamino)-2-oxo-1-phenylethyl)-amino)methyl)-[1,1′-biphenyl]-3-yl)thiophen-3-yl)amino)-3-oxopropoxy)ethoxy)-ethoxy) propanoate]
Relative RNA Cleavage (cleavage of fluorescently labeled RNA, RNase L activation) (listed as compound 5): induce dose-dependent cleavage

CNC(=O)[C@H](c1ccccc1)N(C)Cc1ccc(-c2cccc(-c3sccc3NC(=O)CCOCCOCCOCCC(=O)O)c2)cc1 [Compound 6, (S)-3-(2-(2-(3-((2-(4′-((methyl(2-(methylamino)-2-oxo-1-phenylethyl)amino)methyl)-[1,1′-biphenyl]-3-yl)thiophen-3-yl)amino)-3-oxopropoxy)ethoxy)ethoxy)propanoic acid]
Relative RNA Cleavage (cleavage of fluorescently labeled RNA, RNase L activation): induce dose-dependent cleavage
